According to PubChem BioAssay (NCATS):
The inconclusive results got no clear call from the source; some entries with a clear call stand among them for comparison. Potencies beside an inconclusive call are fits to weak or partial responses and may not hold up. Active and inactive are the calls of the source. Calls come from the whole dose curve; as a rule, active = well fitted cell-killing curve with a large enough effect; inconclusive = small, poorly fitted or top-dose-only effect, or effect the other way, or another doubt; inactive = no such curve, though single readings can be large or run the other way.

Test: Identifying Small Molecule Inhibitors of Pancreatic Cancer Stem Cells (Panc1, Spheroid) (AID 1259359);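 note: compound exposure lasted 48 h before reading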
Settings: Panc1 spheroid cancer stem cell viability; viability, % of control: at 46.1 µM (top of the series)
Summary of the method: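 Luminescent ATP readout (CellTiter-Glo) quantifies surviving cells after a 48 h drug incubation. Normalization uses DMSO wells as no inhibition and media-only wells as full inhibition; bortezomib served as positive control.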
Potency is the fitted concentration of half-maximal effect.

SMILES | Potency | viability, % of control
Cc1ccc(C(N)=O)cc1Nc1nccc(-c2cn(C(C)C)c3cnccc23)n1 | inconclusive: 14800 nM [cytotoxic, partial curve, poor fit] | –
CC(C)C[C@H](NC(=O)[C@@H](O)[C@H](N)Cc1ccccc1)C(=O)O | – | inconclusive: 103%
CC[C@@H]1C(=O)N(C)c2cnc(Nc3ccc(C(=O)NC4CCN(C)CC4)cc3OC)nc2N1C1CCCC1 | active: 8.3 nM | –
C[C@@H](Oc1cc(-c2cnn(C3CCNCC3)c2)cnc1N)c1c(Cl)ccc(F)c1Cl | inconclusive: 6620 nM [cytotoxic, partial curve, poor fit] | –
Cc1ccc(C(=O)N(CCCN)[C@@H](c2nc3cc(Cl)ccc3c(=O)n2Cc2ccccc2)C(C)C)cc1 | active: 3 nM | –
Cc1c(C)c2c(c(C)c1O)CCC(C)(COc1ccc(CC3SC(=O)NC3=O)cc1)O2 (stereo not given) | – | inconclusive: 96.3%
CCOc1cc(C=C2C(=O)N(c3ccccc3)N=C2C)cc(Cl)c1OCC(=O)OC | inconclusive: 41.8 nM [rising, full curve, poor fit] | –
OCCn1cc(-c2cnc3nnn(Cc4ccc5ncccc5c4)c3n2)cn1 | inconclusive: 118 nM [cytotoxic, full curve, poor fit] | –
CCN1CCN(CC(=O)Nc2ccc(-c3cccc4c(=O)cc(N5CCOCC5)oc34)c3sc4ccccc4c23)CC1 | active: 16600 nM | –
COc1ccccc1[C@H](c1cccc2ccccc12)[C@@](C)(C#N)C(=O)N1CCC(c2cccc(C(F)(F)F)c2)CC1 | – | inconclusive: 127%
